No constants are given. Whether binding was seen depends on the method and setting.
Assays:
[1] = target: MsmX K43A from B. subtilis (B. subtilis) (UniProt P94360); assay: crystal structure; crystallised without ligands, space group I222, one molecule in the asymmetric unit, 1.67 Å; interfaces looked at with the PISA server; both purified
[2] = target: MsmX K43A from B. subtilis (B. subtilis) (UniProt P94360); assay: SEC; last step of purification, Superdex 75 10/300 GL in buffer B (10 mM Tris-HCl pH 7.4, 300 mM NaCl, 10 mM MgCl2); both purified

binding [1]: no binding
binding [2]: no binding
B1: MsmX K43A from B. subtilis (enzyme, UniProt P94360 1-365)
chain: MAELRMEHIYKFYDQKEPAVDDFNLHIADKEFIVFVGPSGCGASTTLRMVAGLEEISKGDFYIEGKRVNDVAPKDRDIAMVFQNYALYPHMTVYDNIAFGLKLRKMPKPEIKKRVEEAAKILGLEEYLHRKPKALSGGQRQRVALGRAIVRDAKVFLMDEPLSNLDAKLRVQMRAEIIKLHQRLQTTTIYVTHDQTEALTMATRIVVMKDGKIQQIGTPKDVYEFPENVFVGGFIGSPAMNFFKGKLTDGLIKIGSAALTVPEGKMKVLREKGYIGKEVIFGIRPEDIHDELIVVESYKNSSIKAKINVAELLGSEIMIYSQIDNQDFIARIDARLDIQSGDELTVAFDMNKGHFFDSETEVRIR
